The values that follow come from PubChem BioAssay AID2685 (National Center for Advancing Translational Sciences (NCATS), 2010).

The nature of this experiment: qHTS Assay for Lipid Storage Modulators in Drosophila S3 Cells.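 On cell number change: cells counted by Cell Tracker Red CMTPX staining in the red channel.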 As to conditions: BODIPY lipid droplet fluorescence, 18-24 h; for cell number change: measured here: cell count max response, cells fed with added oleic acid. The essentials: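 Drosophila S3 cells got compounds at several concentrations plus oleic acid (400 uM solution). Laser-scanning cytometry with 488 nm excitation read lipid droplets at 500-530 nm and cells at 575-640 nm. Percent activity was relative to 20 uM Triacsin C.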
Background: Quantitative high-throughput screening tests each substance at several concentrations.

Where [1] appears, read: measured here: lipid fluorescence (Fed channel) AC50, cells fed with added oleic acid.
The mark [2] stands for this setting: measured here: cell number channel AC50, cells fed with added oleic acid.

This is one part of the list. Shown are side measurements of this screen, not its main read-out; they come without a call. Most of these compounds were active or inconclusive in the main read-out, so they are no random draw. Words in brackets tell the shape of the fitted curve; partial curves, single points and poor fits give uncertain potencies.

Take `O=C(Cc1ccc(NS(=O)(=O)c2cccc(C(F)(F)F)c2)cc1)NCCN1CCOCC1`: the cell number change amounted to 10.8%. Broadly, the AC50 is the midpoint of the concentration-response curve, whichever way the signal moves. Read a high AC50 as activity only at high concentration. For `COc1ccc(-c2nc3c(-c4ccc(F)cc4)cnn3cc2C)cc1F`, the cell number change was found to be 9.3%. The concentration at half-maximal activity (AC50) under setting [1] was 2.31 µM [rising, partial curve]. Regarding `O=C(CSc1nc2ccccc2c(=O)n1Cc1ccco1)c1ccc(F)cc1`, the cell number change is -18.6%. For the same compound, the AC50 under setting [1] was 32.6 µM [falling, single point]. On to `Cc1nc(-c2ccc(S(=O)(=O)N3CCN(c4cccc(C)c4C)CC3)cc2)co1`, for which the cell number change was found to be 97.7%. In addition, under setting [2], the AC50 was 11.6 µM [rising, partial curve, poor fit]. In addition, under setting [1], the AC50 was 7.31 µM [rising, partial curve, poor fit]. For the compound `CCC(=O)N1CCc2cc(Br)cc(S(=O)(=O)NCc3ccccc3OC)c21`, the cell number change worked out at 7.21%. Also, the AC50 under setting [1] is 6.51 µM [rising, single point]. Regarding `COCc1c(C(=O)OCC(=O)c2c(N)n(CC(C)C)c(=O)n(C)c2=O)oc2ccccc12`, the cell number change was -25.6%. The AC50 under setting [1] was 25.9 µM [falling, single point]. On to `CCn1nc(NS(=O)(=O)c2ccc([N+](=O)[O-])cc2)c2cc3ccc(C)cc3nc21`, for which the cell number change is -14.1%.

With `COc1ccccc1-c1nc(SCc2ccccn2)n[nH]1`, the cell number change is 77.7%. The AC50 under setting [2] is 11.6 µM [rising, partial curve]. Under setting [1], the AC50 was 4.11 µM [rising, single point]. For `S=c1[nH]cc(-c2ccc(Cl)cc2)n1-c1ccccc1`, the cell number change was 4.1%. Moreover, under setting [1], the AC50 is 4.61 µM [rising, full curve, poor fit]. Regarding `CCN(C(=O)C1CCCN1S(=O)(=O)c1ccc2c(c1)n(C)c(=O)c(=O)n2C)c1ccccc1` (configuration not stated), the cell number change came out at 14.1%.

As for `COc1ccc(C)cc1NC(=O)CSc1nnc(COc2ccccc2)n1Cc1ccco1`, the cell number change was -27.3%. Turning to `Cc1ccc(O)c(CNc2cccc(C)n2)c1`, the cell number change is -1.05%. The AC50 under setting [1] was 6.51 µM [rising, single point]. Turning to `O=C(O)c1ccc(/C=N/NC(=S)NCCN2CCOCC2)cc1`, the AC50 was 6.51 µM [falling, single point] under setting [2] and 6.51 µM [falling, single point] under setting [1]. As for `CCc1ccccc1OCC(=O)N1CCN(c2ncccn2)CC1`, the cell number change is -2.01%. The AC50 under setting [2] is 0.291 µM [rising, partial curve, poor fit]. With `CCOC(=O)c1c(NC(=O)c2c(Br)cnn2CC)sc(C)c1C`, the cell number change came out at 18.5%. Further, the AC50 under setting [1] was 2.06 µM [rising, full curve, poor fit].

Regarding `CC(C)c1nnc(NC(=O)CC23CC4CC(CC(C4)C2)C3)s1`, the cell number change amounted to 14.4%. Moreover, the concentration at half-maximal activity (AC50) under setting [2] was 0.058 µM [rising, full curve, poor fit]. Moreover, the AC50 under setting [1] was 29.1 µM [rising, single point]. Regarding `O=C(c1cccc(Br)c1)c1coc2ccc(O)cc12`, the cell number change was -53.5%. For the same compound, the AC50 under setting [2] was 18.4 µM [falling, single point]. Further, the AC50 under setting [1] was 32.6 µM [falling, partial curve].

Regarding `Cc1ccc(NC(=O)c2ocnc2C)cc1Cl`, the cell number change was -18.8%.

As to `Cc1coc(NC(=O)CSc2nc(-c3ccc(Cl)cc3)cc(C(F)(F)F)c2C#N)n1`, the cell number change is 44.2%. Moreover, the AC50 under setting [2] was 0.291 µM [rising, full curve]. In addition, the AC50 under setting [1] was 0.116 µM [rising, full curve, poor fit]. Turning to `Cc1ccc(CNC(=O)CCS(=O)(=O)c2ccc(Br)s2)o1`, the cell number change is -126%. Also, the AC50 under setting [2] was 1.64 µM [falling, partial curve]. For the compound `CCCN1C(=O)C2(OCCO2)c2cc(Cl)ccc21`, the cell number change is 16.8%. Take `Cc1ccc(Cl)cc1N1CCN(CC(=O)NC2CCCc3ccccc32)CC1` (configuration not stated): the cell number change was -45.3%. Also, the AC50 under setting [2] was 20.6 µM [falling, single point]. Further, the AC50 under setting [1] was 16.4 µM [falling, single point]. As for `CCCCN1CCNC[C@@H]1Cc1ccccc1`, the cell number change was determined as 32.9%. Also, the AC50 under setting [2] is 23.1 µM [rising, single point]. For `Cc1ccc(NC(=O)NCC2CC2(Cl)Cl)cc1` (configuration not stated), under setting [1], the AC50 is 29.1 µM [rising, single point]. For the compound `Cc1nnc(SC(C)C(=O)Nc2ccc3ccccc3c2)n1C` (configuration not stated), the cell number change worked out at 14.8%. Moreover, the AC50 under setting [1] is 4.11 µM [rising, single point]. `Nc1c(Cl)cc(Cl)cc1C(=O)OCC(=O)N1CCCC1=O`: the cell number change was 9.64%. Turning to `COc1ccc(Cn2nc(-c3ccccc3)c(N3CCCCC3)cc2=O)cc1`, the cell number change worked out at 17.7%. Moreover, the concentration at half-maximal activity (AC50) under setting [1] was 9.2 µM [rising, partial curve, poor fit]. Regarding `Cc1cccc(CS(=O)(=O)Cc2ccc(C(=O)NCc3cccnc3)o2)c1`, the AC50 under setting [2] is 6.51 µM [rising, single point]. The same measure, in the same setting: then `Clc1ccc(CN(Cc2ccc(Cl)cc2)c2nn[nH]n2)cc1`, with 0.82 µM [rising, full curve, poor fit]. Turning to `COc1cccc(CC2CC(=O)N(CCc3ccc4c(c3)OCO4)C2=O)c1` (configuration not stated), the concentration at half-maximal activity (AC50) is 0.184 µM [rising, full curve, poor fit] under setting [2] and 29.1 µM [rising, single point] under setting [1]. As for `Cc1ccc(C(=O)NCCNc2ncc(C(F)(F)F)cc2Cl)cc1[N+](=O)[O-]`, the cell number change was found to be 18.5%. The AC50 under setting [2] was 0.731 µM [rising, full curve, poor fit]. The AC50 under setting [1] is 0.231 µM [rising, full curve, poor fit]. Take `COc1cc([N+](=O)[O-])ccc1NC(=O)CSc1ccccn1`: the AC50 under setting [1] is 6.51 µM [rising, single point]. Regarding `COc1ccc(C(CNC(=O)COc2ccccc2C)N2CCOCC2)cc1` (configuration not stated), the cell number change was determined as 154%. Moreover, the AC50 under setting [2] was 7.31 µM [rising, partial curve]. Turning to `COc1ccc(CNC(=O)c2ccc(NC(=O)CC3SC(N4CCCCC4)=NC3=O)cc2)cc1` (configuration not stated), the AC50 under setting [1] is 0.13 µM [falling, full curve, poor fit]. Regarding `O=S(=O)(c1cccc(-c2n[nH]c(=S)o2)c1)N1CCOCC1`, the cell number change was -34.5%. Further, under setting [2], the AC50 is 23.1 µM [falling, single point]. Also, the AC50 under setting [1] is 29.1 µM [falling, single point]. Turning to `CCn1c(-c2nn(-c3ccc(C)cc3)ccc2=O)n[nH]c1=S`, the cell number change came out at 33.8%. The AC50 under setting [2] is 3.16 µM [rising, partial curve, poor fit]. As to `CCOc1cc(CNCCc2ccc(S(N)(=O)=O)cc2)cc(Cl)c1OCc1ccccc1`, the cell number change was -30.5%. Further, the AC50 under setting [2] is 29.1 µM [falling, single point]. For the compound `Cc1ccc(N2CCN(S(=O)(=O)c3ccc(C)cc3)CC2)cc1`, the cell number change stood at 33.7%. For the same compound, under setting [2], the AC50 was 7.31 µM [rising, partial curve].
